Test results reported in the supplement of paper PMC10849652.
The other results are listed elsewhere or left out.

Amino acid sequences for entries named in this document (tags omitted). A change or cut given only in a name is not applied to a line headed by its entry.
UniProt O75521: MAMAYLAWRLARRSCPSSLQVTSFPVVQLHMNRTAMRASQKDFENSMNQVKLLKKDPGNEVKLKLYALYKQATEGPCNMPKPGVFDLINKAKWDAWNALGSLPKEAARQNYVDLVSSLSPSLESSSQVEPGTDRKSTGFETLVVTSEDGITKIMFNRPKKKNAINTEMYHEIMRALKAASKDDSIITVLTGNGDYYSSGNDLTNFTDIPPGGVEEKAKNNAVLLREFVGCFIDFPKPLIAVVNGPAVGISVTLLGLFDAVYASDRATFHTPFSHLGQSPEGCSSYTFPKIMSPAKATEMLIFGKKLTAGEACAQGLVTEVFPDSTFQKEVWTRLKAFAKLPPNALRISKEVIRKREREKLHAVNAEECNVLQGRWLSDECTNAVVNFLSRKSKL
UniProt Q6ZPD9: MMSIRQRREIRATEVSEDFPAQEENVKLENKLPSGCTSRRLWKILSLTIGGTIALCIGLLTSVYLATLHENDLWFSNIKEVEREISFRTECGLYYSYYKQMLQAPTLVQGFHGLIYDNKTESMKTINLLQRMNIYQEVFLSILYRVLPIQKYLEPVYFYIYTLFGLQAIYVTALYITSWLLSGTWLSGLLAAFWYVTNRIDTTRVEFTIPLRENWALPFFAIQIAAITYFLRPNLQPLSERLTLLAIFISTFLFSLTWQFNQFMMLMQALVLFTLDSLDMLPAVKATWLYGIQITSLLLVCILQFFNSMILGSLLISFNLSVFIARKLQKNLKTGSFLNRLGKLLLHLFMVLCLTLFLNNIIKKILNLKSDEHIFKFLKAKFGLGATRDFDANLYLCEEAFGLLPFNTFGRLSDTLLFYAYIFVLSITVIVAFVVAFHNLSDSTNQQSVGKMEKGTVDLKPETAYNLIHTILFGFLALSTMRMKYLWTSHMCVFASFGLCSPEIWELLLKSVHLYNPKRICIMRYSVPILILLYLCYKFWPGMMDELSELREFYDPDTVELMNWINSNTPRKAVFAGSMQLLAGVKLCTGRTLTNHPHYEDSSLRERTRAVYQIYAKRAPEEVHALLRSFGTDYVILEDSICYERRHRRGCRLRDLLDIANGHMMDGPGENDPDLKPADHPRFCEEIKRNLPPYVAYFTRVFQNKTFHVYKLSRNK
UniProt Q8N5C7: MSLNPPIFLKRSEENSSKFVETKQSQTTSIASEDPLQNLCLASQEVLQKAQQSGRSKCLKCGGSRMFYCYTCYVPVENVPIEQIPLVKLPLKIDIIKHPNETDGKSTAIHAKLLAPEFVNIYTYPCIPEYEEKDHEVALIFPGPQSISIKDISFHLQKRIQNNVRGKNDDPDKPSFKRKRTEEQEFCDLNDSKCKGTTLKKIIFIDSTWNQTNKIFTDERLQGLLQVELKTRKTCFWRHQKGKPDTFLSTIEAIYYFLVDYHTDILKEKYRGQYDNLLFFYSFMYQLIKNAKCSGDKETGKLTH
UniProt Q8NBA8: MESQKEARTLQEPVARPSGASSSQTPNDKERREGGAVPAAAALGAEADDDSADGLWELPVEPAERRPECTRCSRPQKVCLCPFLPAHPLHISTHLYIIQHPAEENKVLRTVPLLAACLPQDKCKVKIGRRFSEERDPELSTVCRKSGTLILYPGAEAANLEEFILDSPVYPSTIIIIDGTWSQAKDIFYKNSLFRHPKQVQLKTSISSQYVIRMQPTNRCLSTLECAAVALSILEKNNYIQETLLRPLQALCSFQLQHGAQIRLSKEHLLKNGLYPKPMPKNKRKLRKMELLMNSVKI
UniProt P63167, whole entry, looked up: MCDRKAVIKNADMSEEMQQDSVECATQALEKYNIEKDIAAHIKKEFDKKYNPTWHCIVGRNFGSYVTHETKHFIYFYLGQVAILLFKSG
UniProt P30084: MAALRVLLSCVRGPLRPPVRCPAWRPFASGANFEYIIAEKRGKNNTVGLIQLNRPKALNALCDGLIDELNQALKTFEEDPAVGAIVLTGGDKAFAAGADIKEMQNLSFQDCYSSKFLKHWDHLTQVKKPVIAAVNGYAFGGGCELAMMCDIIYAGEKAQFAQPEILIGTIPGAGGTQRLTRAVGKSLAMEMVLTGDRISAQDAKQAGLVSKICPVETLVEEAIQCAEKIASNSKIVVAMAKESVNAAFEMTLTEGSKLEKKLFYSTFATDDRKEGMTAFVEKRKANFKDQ
UniProt Q9NX74: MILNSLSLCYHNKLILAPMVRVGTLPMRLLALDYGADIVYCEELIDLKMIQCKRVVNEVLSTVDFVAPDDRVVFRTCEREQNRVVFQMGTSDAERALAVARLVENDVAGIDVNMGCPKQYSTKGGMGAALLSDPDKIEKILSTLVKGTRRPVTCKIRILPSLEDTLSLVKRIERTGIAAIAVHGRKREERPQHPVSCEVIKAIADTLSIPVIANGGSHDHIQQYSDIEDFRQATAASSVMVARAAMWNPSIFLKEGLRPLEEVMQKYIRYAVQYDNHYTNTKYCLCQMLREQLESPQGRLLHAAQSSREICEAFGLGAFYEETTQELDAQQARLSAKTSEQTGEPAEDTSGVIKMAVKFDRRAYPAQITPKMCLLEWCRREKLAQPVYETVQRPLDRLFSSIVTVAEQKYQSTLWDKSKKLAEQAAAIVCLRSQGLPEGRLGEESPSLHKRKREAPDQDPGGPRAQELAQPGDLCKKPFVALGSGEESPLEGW
UniProt Q5JPH6: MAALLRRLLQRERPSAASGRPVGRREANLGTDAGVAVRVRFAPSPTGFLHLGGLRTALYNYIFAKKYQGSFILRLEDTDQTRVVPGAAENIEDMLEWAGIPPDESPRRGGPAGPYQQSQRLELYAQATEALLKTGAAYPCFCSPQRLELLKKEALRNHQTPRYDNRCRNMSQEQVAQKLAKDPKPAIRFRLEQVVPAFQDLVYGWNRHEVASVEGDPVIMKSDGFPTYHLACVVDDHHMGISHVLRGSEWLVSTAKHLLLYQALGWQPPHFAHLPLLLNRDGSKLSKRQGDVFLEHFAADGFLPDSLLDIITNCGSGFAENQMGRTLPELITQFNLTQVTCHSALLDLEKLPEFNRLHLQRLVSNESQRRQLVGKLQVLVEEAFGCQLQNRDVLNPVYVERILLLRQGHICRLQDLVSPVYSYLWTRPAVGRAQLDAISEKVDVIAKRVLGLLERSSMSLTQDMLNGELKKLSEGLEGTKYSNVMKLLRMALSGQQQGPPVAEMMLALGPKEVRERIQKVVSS
UniProt Q9Y6G9, whole entry, looked up: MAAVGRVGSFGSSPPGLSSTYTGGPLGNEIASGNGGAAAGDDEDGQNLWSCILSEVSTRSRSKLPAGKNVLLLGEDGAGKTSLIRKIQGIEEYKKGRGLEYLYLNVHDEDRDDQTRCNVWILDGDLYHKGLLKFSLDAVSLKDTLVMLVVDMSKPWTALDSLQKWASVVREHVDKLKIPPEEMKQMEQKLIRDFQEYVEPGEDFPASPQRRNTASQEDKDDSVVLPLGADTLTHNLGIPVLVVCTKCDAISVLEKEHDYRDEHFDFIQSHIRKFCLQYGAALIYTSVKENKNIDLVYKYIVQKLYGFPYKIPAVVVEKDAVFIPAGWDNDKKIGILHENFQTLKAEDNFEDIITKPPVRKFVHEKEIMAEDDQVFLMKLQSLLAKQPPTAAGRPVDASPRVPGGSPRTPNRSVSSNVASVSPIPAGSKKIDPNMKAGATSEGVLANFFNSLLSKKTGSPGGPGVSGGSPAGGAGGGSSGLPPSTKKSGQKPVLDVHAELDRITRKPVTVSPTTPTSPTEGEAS
UniProt Q9H410: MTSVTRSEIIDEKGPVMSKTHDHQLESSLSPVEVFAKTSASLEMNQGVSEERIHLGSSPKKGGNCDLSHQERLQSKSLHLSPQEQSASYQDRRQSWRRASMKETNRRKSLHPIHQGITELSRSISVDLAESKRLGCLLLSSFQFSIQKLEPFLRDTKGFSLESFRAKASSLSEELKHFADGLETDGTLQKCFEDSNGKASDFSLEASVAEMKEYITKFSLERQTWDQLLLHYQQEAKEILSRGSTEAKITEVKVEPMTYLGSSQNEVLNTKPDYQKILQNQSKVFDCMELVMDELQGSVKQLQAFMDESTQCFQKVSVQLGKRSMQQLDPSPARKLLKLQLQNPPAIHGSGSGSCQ
UniProt P50570: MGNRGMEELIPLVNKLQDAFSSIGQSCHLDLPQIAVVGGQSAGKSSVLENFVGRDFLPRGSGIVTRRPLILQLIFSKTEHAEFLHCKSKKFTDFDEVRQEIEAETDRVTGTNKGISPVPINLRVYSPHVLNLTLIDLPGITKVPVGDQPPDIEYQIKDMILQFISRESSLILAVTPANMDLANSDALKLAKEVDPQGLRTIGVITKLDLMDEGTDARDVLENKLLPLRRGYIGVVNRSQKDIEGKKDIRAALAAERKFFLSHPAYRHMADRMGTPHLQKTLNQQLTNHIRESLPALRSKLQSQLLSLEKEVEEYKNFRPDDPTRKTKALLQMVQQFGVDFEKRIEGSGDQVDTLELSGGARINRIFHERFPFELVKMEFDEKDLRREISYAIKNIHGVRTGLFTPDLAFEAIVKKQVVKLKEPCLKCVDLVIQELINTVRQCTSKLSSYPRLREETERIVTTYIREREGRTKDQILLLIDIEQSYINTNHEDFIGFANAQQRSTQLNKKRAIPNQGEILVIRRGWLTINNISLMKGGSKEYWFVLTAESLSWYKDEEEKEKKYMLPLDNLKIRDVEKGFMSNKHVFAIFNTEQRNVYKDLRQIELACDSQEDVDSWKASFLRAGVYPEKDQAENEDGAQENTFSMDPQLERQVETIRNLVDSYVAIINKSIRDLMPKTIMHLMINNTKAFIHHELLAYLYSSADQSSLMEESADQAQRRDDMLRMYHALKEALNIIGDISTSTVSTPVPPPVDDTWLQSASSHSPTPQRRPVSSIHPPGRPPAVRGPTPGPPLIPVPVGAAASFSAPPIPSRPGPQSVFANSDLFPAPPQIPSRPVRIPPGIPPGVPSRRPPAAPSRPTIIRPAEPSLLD
UniProt Q96EY1: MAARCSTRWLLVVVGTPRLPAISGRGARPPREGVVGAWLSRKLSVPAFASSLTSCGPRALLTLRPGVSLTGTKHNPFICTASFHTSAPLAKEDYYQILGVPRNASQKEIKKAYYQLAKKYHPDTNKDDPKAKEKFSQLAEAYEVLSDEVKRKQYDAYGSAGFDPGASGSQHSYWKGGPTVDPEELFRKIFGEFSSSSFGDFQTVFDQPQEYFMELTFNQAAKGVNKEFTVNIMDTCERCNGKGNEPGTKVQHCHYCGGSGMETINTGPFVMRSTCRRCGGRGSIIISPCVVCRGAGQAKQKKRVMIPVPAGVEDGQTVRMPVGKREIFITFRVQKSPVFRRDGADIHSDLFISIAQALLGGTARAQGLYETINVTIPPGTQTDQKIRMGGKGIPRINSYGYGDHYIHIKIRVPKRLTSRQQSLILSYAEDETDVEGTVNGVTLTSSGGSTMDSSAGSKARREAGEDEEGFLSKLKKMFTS
UniProt Q6V1X1: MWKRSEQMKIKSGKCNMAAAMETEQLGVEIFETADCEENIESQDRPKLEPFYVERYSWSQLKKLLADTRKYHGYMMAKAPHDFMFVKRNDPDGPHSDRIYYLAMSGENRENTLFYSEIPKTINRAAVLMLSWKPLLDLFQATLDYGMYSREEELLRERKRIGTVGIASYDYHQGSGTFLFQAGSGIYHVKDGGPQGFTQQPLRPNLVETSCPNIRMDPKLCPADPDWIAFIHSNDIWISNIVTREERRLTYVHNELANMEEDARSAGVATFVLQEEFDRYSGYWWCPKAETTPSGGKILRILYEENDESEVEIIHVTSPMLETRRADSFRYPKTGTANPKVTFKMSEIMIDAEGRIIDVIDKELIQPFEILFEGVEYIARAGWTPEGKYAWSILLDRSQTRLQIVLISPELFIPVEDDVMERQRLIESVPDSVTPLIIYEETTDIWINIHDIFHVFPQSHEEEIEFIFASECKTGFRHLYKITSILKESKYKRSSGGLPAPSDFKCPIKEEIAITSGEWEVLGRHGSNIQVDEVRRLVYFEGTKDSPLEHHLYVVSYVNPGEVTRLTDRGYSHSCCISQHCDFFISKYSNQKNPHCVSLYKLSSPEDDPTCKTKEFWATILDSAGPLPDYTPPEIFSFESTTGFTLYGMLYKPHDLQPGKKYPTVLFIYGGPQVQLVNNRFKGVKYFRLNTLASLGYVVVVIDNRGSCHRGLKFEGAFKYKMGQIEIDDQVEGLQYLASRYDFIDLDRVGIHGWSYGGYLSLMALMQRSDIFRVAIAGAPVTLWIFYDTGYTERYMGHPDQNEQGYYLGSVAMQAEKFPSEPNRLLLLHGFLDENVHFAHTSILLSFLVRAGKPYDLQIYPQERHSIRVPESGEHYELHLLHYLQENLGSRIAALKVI
UniProt Q9H2P9: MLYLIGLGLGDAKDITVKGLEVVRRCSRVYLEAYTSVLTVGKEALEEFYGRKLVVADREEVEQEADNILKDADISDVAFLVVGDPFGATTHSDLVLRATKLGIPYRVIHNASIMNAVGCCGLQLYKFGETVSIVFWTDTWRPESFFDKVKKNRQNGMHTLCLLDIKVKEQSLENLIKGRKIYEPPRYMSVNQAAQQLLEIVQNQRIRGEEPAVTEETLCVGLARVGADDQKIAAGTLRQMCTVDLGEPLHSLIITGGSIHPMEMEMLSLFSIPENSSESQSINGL

Experiments:
Test in all cases: log2 fold change, soluble protein after heating vs DMSO (PISA); higher = thermal stabilisation; K562 cells, 10 uM, 30 min; active = over 0.2 and 3.5 SD of the protein, either way, in both replicates (recomputed)
erlotinib = compound: C#Cc1cccc(Nc2ncnc3cc(OCCOC)c(OCCOC)cc23)c1 [erlotinib]
Outline: (§1)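 Values are thermal stability changes relative to control samples and are taken from duplicates. They are stated as log2 fold changes. Before quantification by TMTpro 16plex LC-MS/MS with equalised channel sums, K562 cells at 2×10^6 cells/mL were treated with 10 μM compound for 30 min, heated in aliquots for 3 min across 48°C-58°C, pooled, extracted in PBS with 0.5% NP-40 at 4°C, and centrifuged at 21,000xg for 90 min to give the soluble supernatant.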

[1] = compound: C/C(=N\NC(=O)C1=CC(=CC=C1)S(=O)(=O)N2CCOCC2)/C3=C(C=CC(=C3)Cl)O
Outline: as §1

[2] = compound: C1=CC(=C(C=C1Cl)C2=NC3=NC=CN=C3C(=N2)NC4=CC=NC=C4)F
Outline: as §1

[3] = compound: C1=CC(=CC=C1C2=NC3=C(N2)C=C(C=C3)C(=O)N)OC4=CC=C(C=C4)Cl
Outline: as §1

[4] = compound: C1=CC2=C(C=CC(=C2)/C=C\3/C(=O)NC(=NCC4=CC=CS4)S3)N=C1
Outline: as §1

[5] = compound: C1=CC2=NC=CN=C2C=C1/C=C/3\C(=O)NC(=O)S3
Outline: as §1

[6] = compound: C1=CC=C(C=C1)C2=NC(=C(N2)C3=CC=NC=C3)C4=CC(=C(C=C4)Cl)O
Outline: as §1

[7] = compound: C1=CC=C2C(=C1)C3=NNC4=CC=CC(=C43)C2=O
Outline: as §1

[8] = compound: C1CCN(C1)C(=O)NC2=CC=CC(=C2)NC3=NC=C(C(=N3)NCCC4=CN=CN4)Br
Outline: as §1

[9] = compound: C1CN(CCC1(CC2=CC=C(C=C2)Cl)N)C3=NC=NC4=C3C=CN4
Outline: as §1

Measured: log2 fold change

ECI2 (UniProt O75521)
inactive: erlotinib 0.044 | [1] 0.005 | [2] 0.053 | [3] -0.005 | [4] 0.028 | [5] 0.02 | [6] 0.056 | [7] 0.009 | [8] 0.001 | [9] 0.067

DPY19L3 (UniProt Q6ZPD9)
inactive: erlotinib 0.096 | [1] -0.082 | [2] -0.007 | [3] 0.144 | [4] 0.116 | [5] -0.002 | [6] -0.14 | [7] 0.085 | [8] -0.09 | [9] 0.164

DTWD1 (UniProt Q8N5C7)
inactive: erlotinib 0.072 | [1] 0.007 | [2] 0.002 | [3] -0.122 | [4] 0.018 | [5] 0.017 | [6] -0.039 | [7] 0.023 | [8] 0.016 | [9] 0.044

DTWD2 (UniProt Q8NBA8)
inactive: erlotinib 0.017 | [1] 0.018 | [2] 0.014 | [3] -0.095 | [4] -0.124 | [5] 0.072 | [6] 0.065 | [7] 0.033 | [8] 0.066 | [9] -0.02

DYNLL1 (UniProt P63167)
inactive: erlotinib -0.013 | [1] 0.043 | [2] 0.019 | [3] -0.01 | [4] 0.024 | [5] -0.049 | [6] 0.055 | [7] -0.066 | [8] -0.034 | [9] -0.039

DUSP23 (UniProt Q9BVJ7)
inactive: erlotinib -0.015 | [1] 0.064 | [2] 0.104 | [3] 0.001 | [4] 0.062 | [5] 0.031 | [6] 0.047 | [7] -0.049 | [8] -0.124 | [9] 0

ECHS1 (UniProt P30084)
inactive: erlotinib -0.048 | [1] 0.056 | [2] 0.037 | [3] 0.017 | [4] -0.043 | [5] 0.02 | [6] 0.056 | [7] 0.043 | [8] -0.011 | [9] 0.018

DUS2 (UniProt Q9NX74)
inactive: erlotinib -0.002 | [1] -0.022 | [2] 0.043 | [3] 0.088 | [4] 0.166 | [5] -0.011 | [6] -0.009 | [7] -0.123 | [8] -0.028 | [9] 0.021

DNAJC8 (UniProt O75937)
inactive: erlotinib -0.08 | [1] 0.081 | [2] 0.046 | [3] 0.014 | [4] 0.019 | [5] 0.049 | [6] -0.026 | [7] 0.011 | [8] 0.011 | [9] -0.043

DPAGT1 (UniProt Q9H3H5)
inactive: erlotinib -0.045 | [1] 0.062 | [2] 0.169 | [3] -0.025 | [4] -0.022 | [5] 0.121 | [6] 0.033 | [7] 0.041 | [8] -0.007 | [9] 0.066

ECSIT (UniProt Q9BQ95)
inactive: erlotinib 0.03 | [1] 0.04 | [2] -0.057 | [3] 0.016 | [4] 0.034 | [5] 0.021 | [6] 0.024 | [7] -0.036 | [8] -0.011 | [9] 0.026

EARS2 isoform 2 (UniProt Q5JPH6)
inactive: erlotinib 0.053 | [1] 0.104 | [2] 0.052 | [3] -0.065 | [4] 0.071 | [5] 0.111 | [6] 0.064 | [7] -0.023 | [8] -0.076 | [9] 0.032

DNAJC6 isoform 2 (UniProt O75061)
inactive: erlotinib -0.008 | [1] 0.055 | [2] 0.041 | [3] -0.011 | [4] 0.037 | [5] 0.114 | [6] -0.022 | [7] -0.007 | [8] -0.052 | [9] -0.005

EAF1 (UniProt Q96JC9)
inactive: erlotinib 0.049 | [1] -0.019 | [2] 0.021 | [3] 0.026 | [4] 0.024 | [5] 0.18 | [6] -0.07 | [7] 0.051 | [8] 0.043 | [9] 0.115

DOHH (UniProt Q9BU89)
inactive: erlotinib -0.001 | [1] -0.102 | [2] -0.046 | [3] 0 | [4] 0.083 | [5] -0.183 | [6] 0.064 | [7] 0.038 | [8] -0.051 | [9] 0.026

DTD1 (UniProt Q8TEA8)
inactive: erlotinib -0.015 | [1] -0.035 | [2] 0.014 | [3] 0.015 | [4] 0.029 | [5] 0.053 | [6] -0.039 | [7] -0.019 | [8] 0.01 | [9] 0.066

Reprinted from the listing (5 entries):
EARS2 isoform 2 (UniProt Q5JPH6)
inactive: erlotinib 0.053 | [1] 0.104 | [2] 0.052 | [3] -0.065 | [4] 0.071 | [5] 0.111 | [6] 0.064 | [7] -0.023 | [8] -0.076 | [9] 0.032

DNAJC6 isoform 2 (UniProt O75061)
inactive: erlotinib -0.008 | [1] 0.055 | [2] 0.041 | [3] -0.011 | [4] 0.037 | [5] 0.114 | [6] -0.022 | [7] -0.007 | [8] -0.052 | [9] -0.005

EAF1 (UniProt Q96JC9)
inactive: erlotinib 0.049 | [1] -0.019 | [2] 0.021 | [3] 0.026 | [4] 0.024 | [5] 0.18 | [6] -0.07 | [7] 0.051 | [8] 0.043 | [9] 0.115

DOHH (UniProt Q9BU89)
inactive: erlotinib -0.001 | [1] -0.102 | [2] -0.046 | [3] 0 | [4] 0.083 | [5] -0.183 | [6] 0.064 | [7] 0.038 | [8] -0.051 | [9] 0.026

DTD1 (UniProt Q8TEA8)
inactive: erlotinib -0.015 | [1] -0.035 | [2] 0.014 | [3] 0.015 | [4] 0.029 | [5] 0.053 | [6] -0.039 | [7] -0.019 | [8] 0.01 | [9] 0.066

Next entries.

DYNC1LI2 (UniProt O43237)
inactive: erlotinib 0.035 | [1] -0.147 | [2] -0.257 | [3] -0.012 | [4] -0.04 | [5] -0.073 | [6] -0.061 | [7] 0.049 | [8] 0.035 | [9] -0.052

DYNC1LI1 (UniProt Q9Y6G9)
inactive: erlotinib -0.047 | [1] 0.013 | [2] 0.009 | [3] 0.032 | [4] 0.02 | [5] 0.023 | [6] 0.026 | [7] 0.021 | [8] 0.042 | [9] -0.049

EDEM3 (UniProt Q9BZQ6)
inactive: erlotinib -0.043 | [1] -0.034 | [2] -0.09 | [3] 0.027 | [4] 0.003 | [5] 0.041 | [6] 0.015 | [7] 0.011 | [8] 0.038 | [9] 0.026

DSN1 (UniProt Q9H410)
inactive: erlotinib 0.07 | [1] 0.042 | [2] -0.002 | [3] 0.024 | [4] -0.019 | [5] -0.009 | [6] -0.018 | [7] 0.006 | [8] 0.004 | [9] -0.091

DNM2 (UniProt P50570)
inactive: erlotinib 0.042 | [1] 0.065 | [2] 0.01 | [3] -0.025 | [4] 0.046 | [5] -0.001 | [6] 0.019 | [7] 0.033 | [8] 0.015 | [9] -0.003

DPP7 (UniProt Q9UHL4)
inactive: erlotinib 0.026 | [1] 0.026 | [2] 0.023 | [3] 0.027 | [4] -0.026 | [5] -0.008 | [6] 0.052 | [7] 0.02 | [8] -0.023 | [9] 0.039

DNAJA3 (UniProt Q96EY1)
inactive: erlotinib 0.07 | [1] -0.015 | [2] -0.073 | [3] 0.086 | [4] -0.016 | [5] 0.088 | [6] -0.019 | [7] 0.075 | [8] 0.01 | [9] -0.024

DUS4L (UniProt O95620)
inactive: erlotinib -0.009 | [1] 0.013 | [2] -0.084 | [3] 0.03 | [4] -0.034 | [5] 0.113 | [6] -0.024 | [7] -0.001 | [8] -0.074 | [9] 0.037

DYNC1H1 (UniProt Q14204)
inactive: erlotinib -0.022 | [1] 0.042 | [2] 0.017 | [3] 0.025 | [4] 0.017 | [5] 0.006 | [6] 0.032 | [7] 0.032 | [8] 0.007 | [9] -0.011

DPP8 (UniProt Q6V1X1)
inactive: erlotinib 0.093 | [1] 0.088 | [2] 0.067 | [3] 0 | [4] 0.134 | [5] 0.018 | [6] -0.067 | [7] -0.011 | [8] -0.003 | [9] 0.008

DPH5 isoform 5 (UniProt Q9H2P9)
inactive: erlotinib 0 | [1] 0.054 | [2] 0.093 | [3] 0.037 | [4] 0.022 | [5] 0.03 | [6] 0.041 | [7] 0.005 | [8] 0.004 | [9] 0.052

DNAJC21 isoform 3 (UniProt Q5F1R6)
inactive: erlotinib -0.025 | [1] 0.058 | [2] -0.215 | [3] 0.021 | [4] -0.027 | [5] -0.012 | [6] -0.033 | [7] -0.019 | [8] -0.07 | [9] -0.23

DPY19L1, A0A1B0GW05
inactive: erlotinib -0.07 | [1] 0.036 | [2] -0.043 | [3] 0.039 | [4] -0.018 | [5] 0.037 | [6] 0.008 | [7] 0.026 | [8] -0.033 | [9] 0.109
